According to PubChem BioAssay AID504834 (National Center for Advancing Translational Sciences (NCATS), 2011):
Among all 320,000 compounds or so, about 22,000 (6.9%) were called active. Inconclusive results, whose numbers are uncertain, are shown with a selection of clear calls. Calls come from the whole dose curve; as a rule, active = well fitted inhibition curve with a large enough effect; inconclusive = small, poorly fitted or top-dose-only effect, or another doubt; inactive = no such curve, though single readings can be large or run the other way. Potencies of inconclusive entries are doubtful fits and often do not repeat.

Experiment: Primary qHTS for delayed death inhibitors of the malarial parasite plastid, 96 hour incubation
Conditions: P. falciparum luciferase reporter growth; series mostly up to 28.7 µM
How it was run: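 Two-generation exposure (96 h) targets delayed-death phenotype. Reporter parasites carrying integrated firefly luciferase, in red cells at 2% hematocrit and 0.05% parasitemia final, kept at 37 C, 5% CO2; luminescence loss indicates inhibition.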
Potency is the fitted concentration of half-maximal effect.

SMILES	Potency
O=C(Cc1ccon1)c1ccc(O)cc1O	inactive
CC(C)c1cc(C(=O)Nc2ccc3c(c2)OCO3)no1	inconclusive: 6.57 µM [inhibitor, partial curve, poor fit]
COc1ccc(NC(=O)CCSCCC(=O)Nc2ccc(OC)cc2OC)c(OC)c1	inconclusive: 18.5 µM [inhibitor, single point]
COc1ccc(-c2csc(Nc3ccccn3)n2)cc1OC	inconclusive: 13.1 µM [inhibitor, single point]
CC(C)c1csc(CN2CCN(Cc3ccc(F)c(F)c3)C(CCO)C2)n1 (stereo unspecified)	inconclusive: 20.8 µM [inhibitor, single point]
CCc1ccc(NC(=O)CCCNC(=O)Cn2cnc3sc(C)c(C)c3c2=O)cc1	inconclusive: 1.47 µM [inhibitor, partial curve, poor fit]
Cn1[nH]c(C(F)(F)F)cc1=O	inconclusive: 2.62 µM [inhibitor, full curve, poor fit]
COc1ccc(C(=O)Nc2ccc(NC(=O)c3cnccn3)cn2)cc1	inactive
Cc1ccc(S(=O)(=O)N2CCOCC2)cc1NC(=O)COC(=O)c1cnc(Cl)c(Cl)c1	inactive
CCCN1C2CCCC1CC(NC(=O)c1cc(OC)c(OC)c(OC)c1)C2 (stereo unspecified)	inactive
FC(F)(F)c1ccc(C2Nc3cccc4cccc(c34)N2)cc1	inconclusive: 18.5 µM [inhibitor, single point]
CN(c1ccccc1)S(=O)(=O)c1cccc(NC(=O)c2nn(C)c(=O)c3ccccc23)c1	inconclusive: 6.57 µM [inhibitor, partial curve, poor fit]
CN(C)c1ccc(-c2cccc(C3CC=CC4C3C(=O)N(Cc3ccccc3)C4c3ccc4ccccc4c3)c2)cc1 (stereo unspecified)	inconclusive: 1.65 µM [inhibitor, partial curve]
COc1ccc2c(c1)C(=O)CC(O)(C(F)F)O2 (stereo unspecified)	inactive
CCCCCc1ccc(-c2ccc(/C=C/C(N)=O)cc2)nc1	inactive
CCN(CC)CCNc1nc(-c2cccs2)c(CC(=O)O)s1	inactive
CC(C)[N+](C)(C)CC(O)CN(c1ccccc1)c1ccccc1 (stereo unspecified)	inactive
Cc1cc(C)n2nc(C(=O)Nc3ccc(S(=O)(=O)N4CCCC4)cc3)nc2n1	active: 2.33 µM
O=C1NC(c2ccccc2)=N/C1=C/c1ccco1	inconclusive: 18.5 µM [inhibitor, single point]
CN(C)C(=O)c1cc(C(=O)c2ccccc2C(F)(F)F)c[nH]1	inconclusive: 10.4 µM [inhibitor, partial curve, poor fit]
COCCN(C(=S)Nc1cccc(OC)c1)C1CCN(C(C)C)CC1	active: 13.1 µM

Already shown: entries from further up.
SMILES	Potency
CCCN1C2CCCC1CC(NC(=O)c1cc(OC)c(OC)c(OC)c1)C2 (stereo unspecified)	inactive
FC(F)(F)c1ccc(C2Nc3cccc4cccc(c34)N2)cc1	inconclusive: 18.5 µM [inhibitor, single point]
